We go through 37 targets from the supplement of paper PMC10849652.

By UniProt entry, the sequences of proteins in these tests, tags left out. Where a name states a change or a piece, a line headed by the entry shows the natural chain unless it says otherwise.
UniProt O15243: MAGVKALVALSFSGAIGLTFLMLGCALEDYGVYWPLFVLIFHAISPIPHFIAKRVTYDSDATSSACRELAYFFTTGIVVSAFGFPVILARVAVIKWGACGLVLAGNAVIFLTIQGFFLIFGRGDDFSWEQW
UniProt Q15334: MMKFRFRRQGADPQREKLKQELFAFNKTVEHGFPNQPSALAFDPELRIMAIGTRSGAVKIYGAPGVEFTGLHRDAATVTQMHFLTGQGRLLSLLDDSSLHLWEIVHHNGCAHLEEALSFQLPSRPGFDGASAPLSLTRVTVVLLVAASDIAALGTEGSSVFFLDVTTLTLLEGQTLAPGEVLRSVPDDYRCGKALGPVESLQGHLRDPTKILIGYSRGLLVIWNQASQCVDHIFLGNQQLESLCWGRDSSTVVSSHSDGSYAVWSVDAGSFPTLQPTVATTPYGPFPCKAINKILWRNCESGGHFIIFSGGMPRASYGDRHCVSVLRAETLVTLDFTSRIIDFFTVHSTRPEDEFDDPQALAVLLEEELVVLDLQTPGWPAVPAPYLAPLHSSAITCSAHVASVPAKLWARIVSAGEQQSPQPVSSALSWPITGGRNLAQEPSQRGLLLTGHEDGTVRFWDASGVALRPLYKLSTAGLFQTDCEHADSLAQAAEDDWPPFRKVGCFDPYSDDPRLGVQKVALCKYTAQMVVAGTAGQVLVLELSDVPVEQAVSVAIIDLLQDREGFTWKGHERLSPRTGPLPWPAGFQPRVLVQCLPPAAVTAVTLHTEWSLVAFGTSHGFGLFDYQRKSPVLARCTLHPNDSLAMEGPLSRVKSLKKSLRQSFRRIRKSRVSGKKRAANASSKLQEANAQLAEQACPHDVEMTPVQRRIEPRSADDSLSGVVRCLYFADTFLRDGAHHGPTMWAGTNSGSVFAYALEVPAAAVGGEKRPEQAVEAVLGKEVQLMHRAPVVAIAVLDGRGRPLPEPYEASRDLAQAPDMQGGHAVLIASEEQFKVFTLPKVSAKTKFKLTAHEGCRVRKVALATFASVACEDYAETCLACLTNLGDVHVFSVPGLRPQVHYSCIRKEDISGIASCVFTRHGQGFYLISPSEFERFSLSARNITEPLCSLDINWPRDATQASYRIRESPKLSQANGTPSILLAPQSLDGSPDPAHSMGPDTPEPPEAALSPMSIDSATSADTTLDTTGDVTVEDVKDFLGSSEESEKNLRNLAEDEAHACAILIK
UniProt P61968: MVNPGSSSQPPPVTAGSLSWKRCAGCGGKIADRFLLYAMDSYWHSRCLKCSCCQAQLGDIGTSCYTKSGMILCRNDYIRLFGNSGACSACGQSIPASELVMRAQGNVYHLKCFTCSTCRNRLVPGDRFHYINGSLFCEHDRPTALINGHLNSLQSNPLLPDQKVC
UniProt Q6PJG9: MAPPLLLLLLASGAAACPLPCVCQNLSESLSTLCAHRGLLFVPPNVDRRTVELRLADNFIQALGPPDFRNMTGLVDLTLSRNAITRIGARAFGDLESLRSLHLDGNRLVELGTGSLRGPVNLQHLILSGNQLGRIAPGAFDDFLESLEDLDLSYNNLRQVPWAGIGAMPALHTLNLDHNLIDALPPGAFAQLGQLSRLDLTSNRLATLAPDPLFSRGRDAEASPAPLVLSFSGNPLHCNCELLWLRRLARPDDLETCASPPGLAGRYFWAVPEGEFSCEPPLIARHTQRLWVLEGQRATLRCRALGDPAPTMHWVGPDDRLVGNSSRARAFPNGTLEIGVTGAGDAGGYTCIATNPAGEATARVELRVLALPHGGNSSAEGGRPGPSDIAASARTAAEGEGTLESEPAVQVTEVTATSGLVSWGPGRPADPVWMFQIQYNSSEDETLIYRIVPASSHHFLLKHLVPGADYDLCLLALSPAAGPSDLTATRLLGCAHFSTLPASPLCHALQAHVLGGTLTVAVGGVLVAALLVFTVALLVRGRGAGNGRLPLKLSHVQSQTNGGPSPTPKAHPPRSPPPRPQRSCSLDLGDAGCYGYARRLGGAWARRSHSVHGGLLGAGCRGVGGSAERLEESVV
UniProt Q13571: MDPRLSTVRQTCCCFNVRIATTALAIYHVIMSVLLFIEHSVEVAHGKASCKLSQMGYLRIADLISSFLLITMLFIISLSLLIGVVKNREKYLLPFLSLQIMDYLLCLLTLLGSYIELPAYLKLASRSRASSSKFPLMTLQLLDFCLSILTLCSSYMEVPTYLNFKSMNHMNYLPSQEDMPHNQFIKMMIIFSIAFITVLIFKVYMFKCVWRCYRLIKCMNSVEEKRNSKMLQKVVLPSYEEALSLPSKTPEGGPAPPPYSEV
UniProt O60294: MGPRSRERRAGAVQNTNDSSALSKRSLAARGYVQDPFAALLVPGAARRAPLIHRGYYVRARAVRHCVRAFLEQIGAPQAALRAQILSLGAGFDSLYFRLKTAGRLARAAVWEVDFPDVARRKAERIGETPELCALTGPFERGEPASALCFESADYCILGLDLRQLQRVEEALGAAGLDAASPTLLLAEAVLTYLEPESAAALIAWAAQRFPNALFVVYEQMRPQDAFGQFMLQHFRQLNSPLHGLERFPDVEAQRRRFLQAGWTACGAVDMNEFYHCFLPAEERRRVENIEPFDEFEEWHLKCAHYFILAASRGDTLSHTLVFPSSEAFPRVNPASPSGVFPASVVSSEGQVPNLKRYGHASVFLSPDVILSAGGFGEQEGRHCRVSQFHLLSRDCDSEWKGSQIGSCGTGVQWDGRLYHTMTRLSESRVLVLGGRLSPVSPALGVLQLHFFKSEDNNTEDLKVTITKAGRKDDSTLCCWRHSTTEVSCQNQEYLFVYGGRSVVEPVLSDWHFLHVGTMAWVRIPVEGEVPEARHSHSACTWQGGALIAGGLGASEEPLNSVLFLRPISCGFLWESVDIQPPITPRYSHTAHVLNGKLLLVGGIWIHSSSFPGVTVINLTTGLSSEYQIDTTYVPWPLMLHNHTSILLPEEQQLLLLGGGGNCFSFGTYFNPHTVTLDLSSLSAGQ
UniProt O75197: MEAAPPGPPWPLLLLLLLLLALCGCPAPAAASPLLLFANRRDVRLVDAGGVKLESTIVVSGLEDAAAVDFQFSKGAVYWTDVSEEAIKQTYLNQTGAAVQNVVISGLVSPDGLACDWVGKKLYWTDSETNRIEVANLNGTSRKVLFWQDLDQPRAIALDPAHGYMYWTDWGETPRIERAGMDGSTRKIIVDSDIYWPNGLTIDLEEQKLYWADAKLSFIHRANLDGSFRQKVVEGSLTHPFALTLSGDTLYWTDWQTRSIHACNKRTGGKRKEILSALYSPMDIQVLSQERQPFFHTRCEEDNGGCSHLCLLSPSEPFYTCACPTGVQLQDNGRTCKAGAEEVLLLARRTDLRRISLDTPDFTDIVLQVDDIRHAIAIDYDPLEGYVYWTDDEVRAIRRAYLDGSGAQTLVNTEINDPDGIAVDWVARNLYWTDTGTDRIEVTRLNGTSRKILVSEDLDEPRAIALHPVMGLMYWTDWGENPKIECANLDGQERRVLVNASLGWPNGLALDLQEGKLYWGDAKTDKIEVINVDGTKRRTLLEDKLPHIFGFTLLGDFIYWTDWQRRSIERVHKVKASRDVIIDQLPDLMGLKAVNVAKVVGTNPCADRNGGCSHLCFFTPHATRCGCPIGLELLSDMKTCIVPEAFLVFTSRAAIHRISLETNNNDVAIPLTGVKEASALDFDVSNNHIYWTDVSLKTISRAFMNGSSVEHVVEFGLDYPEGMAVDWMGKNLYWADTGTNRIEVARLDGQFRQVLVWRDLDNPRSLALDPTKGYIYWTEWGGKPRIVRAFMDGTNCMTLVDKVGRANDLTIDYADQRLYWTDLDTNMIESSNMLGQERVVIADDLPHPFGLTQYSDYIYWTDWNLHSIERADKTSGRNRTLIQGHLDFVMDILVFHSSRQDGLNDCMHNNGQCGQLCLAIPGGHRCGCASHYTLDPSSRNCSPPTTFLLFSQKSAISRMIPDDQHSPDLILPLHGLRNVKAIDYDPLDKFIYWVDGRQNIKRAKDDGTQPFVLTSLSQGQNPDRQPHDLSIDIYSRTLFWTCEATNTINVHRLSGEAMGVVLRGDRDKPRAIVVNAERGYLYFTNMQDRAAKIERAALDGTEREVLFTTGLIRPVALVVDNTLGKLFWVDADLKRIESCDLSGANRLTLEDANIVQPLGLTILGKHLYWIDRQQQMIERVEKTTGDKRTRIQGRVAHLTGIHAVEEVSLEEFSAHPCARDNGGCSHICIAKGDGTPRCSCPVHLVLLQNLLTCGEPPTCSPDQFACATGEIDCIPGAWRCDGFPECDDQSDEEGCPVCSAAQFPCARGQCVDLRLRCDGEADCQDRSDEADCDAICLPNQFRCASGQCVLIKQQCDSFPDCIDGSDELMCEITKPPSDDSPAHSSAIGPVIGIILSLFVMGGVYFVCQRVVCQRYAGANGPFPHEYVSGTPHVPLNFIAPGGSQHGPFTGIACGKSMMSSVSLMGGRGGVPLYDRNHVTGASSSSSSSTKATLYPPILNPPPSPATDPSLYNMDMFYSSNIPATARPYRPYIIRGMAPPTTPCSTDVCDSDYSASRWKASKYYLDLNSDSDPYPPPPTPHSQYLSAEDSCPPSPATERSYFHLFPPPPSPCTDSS
UniProt Q9BT23: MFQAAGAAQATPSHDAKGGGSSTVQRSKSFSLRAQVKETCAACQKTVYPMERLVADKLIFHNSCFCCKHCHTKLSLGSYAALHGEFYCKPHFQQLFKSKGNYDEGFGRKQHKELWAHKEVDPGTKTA
UniProt P06858: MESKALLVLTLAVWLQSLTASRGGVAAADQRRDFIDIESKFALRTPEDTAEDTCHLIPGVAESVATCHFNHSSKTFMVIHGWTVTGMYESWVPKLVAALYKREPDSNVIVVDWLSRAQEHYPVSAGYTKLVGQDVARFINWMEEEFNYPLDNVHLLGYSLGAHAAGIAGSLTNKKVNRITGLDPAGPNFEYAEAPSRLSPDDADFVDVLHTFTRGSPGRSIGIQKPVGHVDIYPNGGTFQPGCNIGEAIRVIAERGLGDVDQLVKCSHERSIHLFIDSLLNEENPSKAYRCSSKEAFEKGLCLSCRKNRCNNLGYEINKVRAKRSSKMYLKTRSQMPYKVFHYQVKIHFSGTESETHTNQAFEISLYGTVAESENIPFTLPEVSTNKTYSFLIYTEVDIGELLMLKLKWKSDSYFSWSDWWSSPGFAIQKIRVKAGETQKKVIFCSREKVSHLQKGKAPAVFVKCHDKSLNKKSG
UniProt Q9GZZ8: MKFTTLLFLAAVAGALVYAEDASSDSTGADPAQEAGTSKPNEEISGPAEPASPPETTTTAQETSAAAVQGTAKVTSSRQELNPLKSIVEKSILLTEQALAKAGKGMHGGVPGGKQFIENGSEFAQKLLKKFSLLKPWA
UniProt Q5T7N2: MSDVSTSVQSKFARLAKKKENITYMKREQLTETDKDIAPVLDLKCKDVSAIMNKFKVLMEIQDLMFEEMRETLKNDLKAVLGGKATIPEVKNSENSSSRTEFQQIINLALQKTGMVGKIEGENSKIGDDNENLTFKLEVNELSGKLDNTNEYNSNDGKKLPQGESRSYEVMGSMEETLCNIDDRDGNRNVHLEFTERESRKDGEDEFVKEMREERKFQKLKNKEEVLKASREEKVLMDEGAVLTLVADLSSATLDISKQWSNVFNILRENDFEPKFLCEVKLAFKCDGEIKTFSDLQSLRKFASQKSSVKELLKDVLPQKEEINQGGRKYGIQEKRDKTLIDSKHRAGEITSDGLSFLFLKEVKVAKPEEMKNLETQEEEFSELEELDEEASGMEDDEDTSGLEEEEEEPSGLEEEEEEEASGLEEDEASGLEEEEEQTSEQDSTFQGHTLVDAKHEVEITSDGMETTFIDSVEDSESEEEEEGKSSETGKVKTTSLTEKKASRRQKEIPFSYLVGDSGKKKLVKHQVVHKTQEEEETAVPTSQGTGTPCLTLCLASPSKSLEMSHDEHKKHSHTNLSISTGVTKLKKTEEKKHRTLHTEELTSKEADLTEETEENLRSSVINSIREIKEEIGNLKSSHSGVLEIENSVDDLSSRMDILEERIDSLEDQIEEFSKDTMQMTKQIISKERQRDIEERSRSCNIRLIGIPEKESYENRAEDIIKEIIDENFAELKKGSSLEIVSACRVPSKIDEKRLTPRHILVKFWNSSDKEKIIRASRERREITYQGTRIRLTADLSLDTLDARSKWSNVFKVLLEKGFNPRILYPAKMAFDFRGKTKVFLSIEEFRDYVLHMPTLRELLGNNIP
UniProt P02750: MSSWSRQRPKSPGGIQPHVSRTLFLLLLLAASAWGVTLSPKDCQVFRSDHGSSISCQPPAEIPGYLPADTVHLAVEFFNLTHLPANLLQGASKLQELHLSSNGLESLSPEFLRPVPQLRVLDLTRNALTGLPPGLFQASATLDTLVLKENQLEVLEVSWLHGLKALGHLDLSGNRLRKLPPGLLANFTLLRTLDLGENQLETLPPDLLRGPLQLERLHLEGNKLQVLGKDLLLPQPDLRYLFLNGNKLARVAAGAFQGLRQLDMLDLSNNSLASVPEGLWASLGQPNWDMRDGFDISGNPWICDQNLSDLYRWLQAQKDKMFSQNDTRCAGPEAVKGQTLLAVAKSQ

The list shows a part of the results.

Compound in one test: CC1=C(SC2=C1C(=N[C@H](C3=NN=C(N32)C)CC(=O)N)C4=CC=C(C=C4)Cl)C
Description: log2 fold change, soluble protein after heating vs DMSO (PISA); higher = thermal stabilisation; K562 cells, 10 uM, 30 min; active = over 0.2 and 3.5 SD of the protein, either way, in both replicates (recomputed). The procedure, abridged: (§1)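 Quantification of soluble protein used TMTpro 16plex LC-MS/MS, with channel sums equalised. Samples were the supernatant after 21,000xg for 90 min of pooled aliquots from K562 cells (2×10^6 cells/mL) treated with 10 μM compound for 30 min, heated for 3 min over 48°C-58°C, and extracted in PBS with 0.5% NP-40 at 4°C. Values, from duplicates, describe thermal stability against control samples on a log2 fold-change scale.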
Turning to LIN28A (UniProt Q9H9Z2), the log2 fold change is inactive: -0.159.
For the target LAMA5 (UniProt O15230), the log2 fold change is inactive: -0.123.
Same read-out and setting: the value for LEPROT (UniProt O15243) was inactive: -0.022; that for LLGL1 (UniProt Q15334) was inactive: -0.109; that for LRP10 (UniProt Q7Z4F1) was inactive: -0.075.
On the same count and under the same terms, then LEG1 (UniProt Q6P5S2), with inactive: 0.013; and LLGL2 (UniProt Q6P1M3), with inactive: -0.021.
Consider LAMA2 (UniProt P24043), for which the log2 fold change is inactive: -0.12.
Consider LANCL3 (UniProt Q6ZV70), for which the log2 fold change was inactive: -0.084.
Consider LMO4 (UniProt P61968), for which the log2 fold change was inactive: 0.114.
Take LRP6 (UniProt O75581): the log2 fold change was inactive: 0.073.
Take LIG3 (UniProt P49916): the log2 fold change was inactive: -0.153.
With LRFN4 (UniProt Q6PJG9), the log2 fold change is inactive: 0.06.
For the target LAPTM5 (UniProt Q13571), the log2 fold change was inactive: 0.088.
Same read-out and setting: then LCMT2 (UniProt O60294), with inactive: 0.062; and LIMS1 isoform 5 (UniProt P48059), with inactive: 0.007.
With LRP5 (UniProt O75197), the log2 fold change is inactive: -0.117.
On to LIMD2 (UniProt Q9BT23), for which the log2 fold change is inactive: 0.074.
Take LDHD (UniProt Q86WU2): the log2 fold change is inactive: 0.066.
Consider LBHD1 (UniProt Q9BQE6), for which the log2 fold change was inactive: -0.242.
On the same count and under the same terms, then LPL (UniProt P06858), with inactive: 0.037.
In the case of LACRT (UniProt Q9GZZ8), the log2 fold change was inactive: 0.05.
As for L1TD1 (UniProt Q5T7N2), the log2 fold change is inactive: -0.043.
Turning to LRG1 (UniProt P02750), the log2 fold change is inactive: -0.139.
In the case of LPCAT4 (UniProt Q643R3), the log2 fold change is inactive: 0.
For LRBA, A0A494BZW2, the log2 fold change was inactive: 0.048.

Compound in the next test: CC1=C2C(=CC=C1)N=C(N(C2=O)C3=CC=CC=C3C)CN4C=NC5=C(N=CN=C54)N
The test is described as above. The procedure, abridged:
as §1
With LAMA5 (UniProt O15230), the log2 fold change was inactive: -0.072.
Same read-out and setting: then LIPT2 (UniProt A6NK58), with inactive: -0.002.
In the case of LEG1 (UniProt Q6P5S2), the log2 fold change was inactive: 0.245.
Consider LRP1 (UniProt Q07954), for which the log2 fold change is inactive: 0.066.
On the same count and under the same terms, the value for LIG4 (UniProt P49917) was inactive: 0.175; that for LCP2 (UniProt Q13094) was inactive: 0.033.
With LCMT2 (UniProt O60294), the log2 fold change was inactive: 0.201.
In the case of LHFPL2 (UniProt Q6ZUX7), the log2 fold change was inactive: 0.011.
Turning to LRP5 (UniProt O75197), the log2 fold change is inactive: -0.017.
With LRRC14 (UniProt Q15048), the log2 fold change was inactive: 0.074.
Take LPL (UniProt P06858): the log2 fold change is inactive: -0.157.
Consider LACRT (UniProt Q9GZZ8), for which the log2 fold change is inactive: -0.294.
For the target LRG1 (UniProt P02750), the log2 fold change is inactive: 0.211.

Compound in the next test: Cc1sc2c(c1C)C(c1ccc(Cl)cc1)=N[C@@H](CC(=O)OC(C)(C)C)c1nnc(C)n1-2
The test is described as above. The procedure, abridged: as §1
Turning to LAMA5 (UniProt O15230), the log2 fold change is inactive: 0.236.
For the target LIPT2 (UniProt A6NK58), the log2 fold change is inactive: 0.004.
Consider LEPROT (UniProt O15243), for which the log2 fold change is inactive: -0.235.
As for LLGL1 (UniProt Q15334), the log2 fold change was inactive: -0.132.
As for LIMK1 (UniProt P53667), the log2 fold change was inactive: 0.232.
As to LMNA isoform 2 (UniProt P02545), the log2 fold change was inactive: -0.033.
For the target LRP1 (UniProt Q07954), the log2 fold change was inactive: -0.048.
In the case of LCP2 (UniProt Q13094), the log2 fold change was inactive: 0.023.
Take LMO4 (UniProt P61968): the log2 fold change was inactive: -0.094.
Turning to LRP6 (UniProt O75581), the log2 fold change was inactive: -0.058.
On to LRFN4 (UniProt Q6PJG9), for which the log2 fold change is inactive: -0.05.
As to LAPTM5 (UniProt Q13571), the log2 fold change is inactive: 0.032.
With LCN2 isoform 2 (UniProt P80188), the log2 fold change was inactive: 0.029.
With LHFPL2 (UniProt Q6ZUX7), the log2 fold change was inactive: 0.185.
Consider LRP5 (UniProt O75197), for which the log2 fold change is inactive: 0.163.
Same read-out and setting: then LIMD2 (UniProt Q9BT23), with inactive: 0.107.
For the target LAMB2 (UniProt P55268), the log2 fold change is inactive: -0.032.
Still for that read-out and setting: the value for LRRC14 (UniProt Q15048) was inactive: -0.022; that for LPL (UniProt P06858) was inactive: -0.039.
Still for that read-out and setting: then L1TD1 (UniProt Q5T7N2), with inactive: 0.097.
LRG1 (UniProt P02750): the log2 fold change is inactive: -0.159.
Take LRBA, A0A494BZW2: the log2 fold change is inactive: 0.113.
On the same count and under the same terms, then LETMD1 isoform 7 (UniProt Q6P1Q0), with inactive: 0.01.

Compound in the next test: c1ccc([C@@H]2C[C@H]2NC2CCNCC2)cc1
Described as above. The gist of the method: as §1
As to LIN28A (UniProt Q9H9Z2), the log2 fold change was inactive: 0.187.
As to LAMA5 (UniProt O15230), the log2 fold change was inactive: 0.141.
In the case of LEPROT (UniProt O15243), the log2 fold change is inactive: 0.112.
Take LLGL1 (UniProt Q15334): the log2 fold change was inactive: 0.044.
Same read-out and setting: then LRP10 (UniProt Q7Z4F1), with inactive: 0.226; and LEG1 (UniProt Q6P5S2), with inactive: -0.135.
Same read-out and setting: the value for LLGL2 (UniProt Q6P1M3) was inactive: 0.025; that for LAMA2 (UniProt P24043) was inactive: -0.024; that for LANCL3 (UniProt Q6ZV70) was inactive: 0.178.
Still for that read-out and setting: then LMO4 (UniProt P61968), with inactive: 0.003; and LRP6 (UniProt O75581), with inactive: 0.215.
As to LIG3 (UniProt P49916), the log2 fold change was inactive: -0.12.
As for LRFN4 (UniProt Q6PJG9), the log2 fold change was inactive: -0.06.
For LAPTM5 (UniProt Q13571), the log2 fold change is inactive: -0.062.
Same read-out and setting: the value for LCMT2 (UniProt O60294) was inactive: -0.072; that for LIMS1 isoform 5 (UniProt P48059) was inactive: 0.005.
As to LRP5 (UniProt O75197), the log2 fold change was inactive: 0.281.
With LIMD2 (UniProt Q9BT23), the log2 fold change is inactive: 0.008.
Turning to LDHD (UniProt Q86WU2), the log2 fold change was inactive: 0.11.
LBHD1 (UniProt Q9BQE6): the log2 fold change is inactive: 0.087.
LPL (UniProt P06858): the log2 fold change is inactive: 0.019.
Same read-out and setting: the value for LACRT (UniProt Q9GZZ8) was inactive: 0.246; that for L1TD1 (UniProt Q5T7N2) was inactive: 0.087.
In the case of LRG1 (UniProt P02750), the log2 fold change is inactive: -0.256.
In the case of LPCAT4 (UniProt Q643R3), the log2 fold change is inactive: -0.402.
Same read-out and setting: then LRBA, A0A494BZW2, with inactive: 0.014.
